Measurements reported in PubChem BioAssay AID504764 (Drosophila RNAi Screening Center, 2011)

Screen: 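Genome-wide screen for regulators of Notch-driven gene expression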 (primary screen)
Cell system: Drosophila Kc167 cells
Knock-down reagent: long dsRNA against Drosophila genes
Duration: about 5 days (4 days dsRNA, then 24 h after transfection)
Conditions: transfection of constitutively active membrane-tethered Notch lacking the extracellular domain, read 24 h later
Measured: 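Light from a Notch-responsive E(spl)m3 luciferase reporter under active Notch, with control-promoter and no-Notch reporter wells to normalise; raw counts from paired wells a and b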
Direction: induced reporter light, run 1, well a and induced reporter light, run 1, well b: higher = more light from the Notch target reporter with active Notch; control promoter light, run 1, well a and control promoter light, run 1, well b: higher = more light from the viral control promoter (cell number, transfection, viability); uninduced reporter light, run 1, well a: higher = more light from the Notch target reporter without active Notch
Active means: 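Hit if the duplicate-averaged log2 ratio of induced to control-promoter light gives a plate-wise z beyond ±2, or induced to uninduced beyond ±1.8; weak-control or discordant-duplicate wells dropped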
Meaning of the calls: active = modifier hit (raised or lowered Notch signal); inactive = not a hit
The deposit covers about 22,000 reagents; below is a random part of those that have a named target and a result. In the full data, 403 (1.9%) are marked active. 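Unnormalised raw counts per well; ratio z-scores behind the hit calls and whether each hit raises or lowers signal are not deposited.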 Names joined by + are all predicted targets of the reagent. No sequences are given here. Not given: the amount of reagent.

| predicted target | dsRNA | induced reporter light, run 1, well a | induced reporter light, run 1, well b | control promoter light, run 1, well a | control promoter light, run 1, well b | uninduced reporter light, run 1, well a | Outcome |
| --- | --- | --- | --- | --- | --- | --- | --- |
| CG6013 | DRSC15947 | 1.65e5 | 1.69e5 | 2.40e5 | 2.23e5 | 16780 | inactive |
| Hexo1 | DRSC08663 | 68485 | 2.34e5 | 2.11e5 | 2.24e5 | 10190 | inactive |
| Klp67A + CG34456 | DRSC10420 | 1.76e5 | 1.66e5 | 3.52e5 | 3.91e5 | 9195 | active |
| PGAP5 | DRSC03089 | 1.64e5 | 2.10e5 | 1.20e5 | 1.31e5 | 22995 | inactive |
| CG17625 | DRSC15249 | 1.85e5 | 1.32e5 | 1.93e5 | 1.76e5 | 13375 | inactive |
| CG16799 | DRSC06626 | 1.01e5 | 1.05e5 | 1.72e5 | 2.13e5 | 7615 | inactive |
| nAChRalpha7 | DRSC20078 | 66480 | 80990 | 76035 | 1.19e5 | 9040 | inactive |
| nAChRalpha7 | DRSC20081 | 75685 | 1.02e5 | 73125 | 79500 | 9010 | inactive |
| scaf | DRSC04849 | 2.16e5 | 1.97e5 | 1.77e5 | 1.92e5 | 12205 | active |
| CG2127 | DRSC06821 | 2.11e5 | 1.70e5 | 2.33e5 | 1.78e5 | 15020 | inactive |
| CG13721 | DRSC08330 | 1.66e5 | 1.61e5 | 1.55e5 | 1.63e5 | 7225 | inactive |
| g | DRSC20335 | 54470 | 64420 | 43835 | 71035 | 4535 | inactive |
| CG31533 | DRSC13018 | 1.18e5 | 92350 | 1.25e5 | 1.08e5 | 8010 | inactive |
| Ogdh | DRSC09854 | 2.01e5 | 1.44e5 | 1.07e5 | 1.42e5 | 10730 | inactive |
| Ogdh | DRSC09855 | 35100 | 36505 | 60095 | 55720 | 1645 | inactive |
| Ank | DRSC17127 | 1.46e5 | 1.42e5 | 2.20e5 | 2.38e5 | 10800 | inactive |
| rha | DRSC17044 | 2.52e5 | 1.82e5 | 2.71e5 | 2.73e5 | 14775 | inactive |
| CG6052 | DRSC10574 | 2.00e5 | 1.75e5 | 2.66e5 | 1.94e5 | 7925 | inactive |
| CG13168 | DRSC06295 | 94045 | 1.22e5 | 1.26e5 | 1.14e5 | 9210 | inactive |
| CG6974 | DRSC16160 | 2.40e5 | 2.62e5 | 2.29e5 | 2.27e5 | 18640 | inactive |
| CG15754 | DRSC19719 | 92875 | 94515 | 1.57e5 | 1.61e5 | 7042 | inactive |
| CG4502 | DRSC02755 | 1.35e5 | 1.36e5 | 94375 | 1.02e5 | 8770 | inactive |
| Polr2K | DRSC05535 | 1.99e5 | 2.08e5 | 3.02e5 | 3.49e5 | 19310 | inactive |
| CG9114 | DRSC20155 | 80870 | 77470 | 94170 | 98870 | 12130 | inactive |
| CG14932 | DRSC02414 | 1.25e5 | 1.62e5 | 78465 | 1.03e5 | 18670 | inactive |
| CG31145 | DRSC13634 | 1.93e5 | 2.02e5 | 2.10e5 | 2.49e5 | 16755 | inactive |
| CG31145 | DRSC14206 | 1.33e5 | 1.42e5 | 1.64e5 | 1.45e5 | 12342 | inactive |
| CG31145 | DRSC14670 | 6865 | 6825 | 6955 | 4770 | 2030 | inactive |
| CG31145 | DRSC14671 | 2.22e5 | 1.50e5 | 2.19e5 | 1.93e5 | 14800 | inactive |
| CG6325 | DRSC16020 | 1.17e5 | 1.14e5 | 91415 | 62655 | 8750 | inactive |
| CG33155 + mRpL53 | DRSC05461 | 2.00e5 | 1.78e5 | 2.51e5 | 2.96e5 | 17695 | inactive |
| CG32944 | DRSC12138 | 1.42e5 | 1.26e5 | 1.05e5 | 88430 | 8640 | inactive |
| CG32944 | DRSC12341 | 1.62e5 | 1.11e5 | 1.38e5 | 1.57e5 | 10200 | inactive |
| CG42521 | DRSC10154 | 1.66e5 | 1.60e5 | 2.15e5 | 1.90e5 | 12135 | inactive |
| TTLL1A | DRSC20121 | 1.20e5 | 1.22e5 | 91650 | 47070 | 8685 | inactive |
| Fkbp12 | DRSC07425 | 1.16e5 | 1.03e5 | 1.38e5 | 1.41e5 | 9305 | inactive |
| abd-A | DRSC13179 | 10240 | 11040 | 5750 | 5955 | 3515 | inactive |
| abd-A | DRSC16897 | 11825 | 11720 | 12085 | 14370 | 3382 | inactive |
| CG14937 | DRSC02419 | 1.34e5 | 1.57e5 | 95745 | 1.28e5 | 19505 | inactive |
| Mesh1 | DRSC14433 | 1.31e5 | 1.33e5 | 1.85e5 | 1.52e5 | 11265 | inactive |
| Oat | DRSC11043 | 1.28e5 | 1.21e5 | 96370 | 89125 | 7555 | inactive |
| CG34235 + CG30058 + CG34312 | DRSC22142 | – | – | – | – | – | inactive |
| Pal1 | DRSC06106 | 1.74e5 | 1.47e5 | 1.42e5 | 1.28e5 | 14535 | inactive |
| CG11145 | DRSC06049 | 1.94e5 | 1.55e5 | 2.01e5 | 2.09e5 | 16605 | inactive |
| His3:CG33818 + His3:CG33857 + His3:CG33806 + 20 more | DRSC21267 | 2960 | 3465 | 5165 | 4678 | 832 | inactive |
| CG13438 | DRSC06398 | 1.11e5 | 1.59e5 | 2.85e5 | 2.30e5 | 9860 | inactive |
| CG11737 | DRSC14364 | 81400 | 92290 | 73710 | 58175 | 6325 | inactive |
| CG8219 | DRSC10971 | 1.76e5 | 1.62e5 | 1.28e5 | 1.88e5 | 9335 | inactive |
| mRpL14 | DRSC18597 | 1.06e5 | 1.03e5 | 1.57e5 | 1.90e5 | 7632 | inactive |
| CG33143 | DRSC04151 | 1.89e5 | 1.72e5 | 1.77e5 | 1.49e5 | 13840 | inactive |
| CG33143 | DRSC04454 | 1.84e5 | 2.00e5 | 1.49e5 | 1.30e5 | 15235 | inactive |

Just “induced reporter light, run 1, well a” (3 entries from above):
CG31145 [DRSC14206]: 1.33e5
CG31145 [DRSC14670]: 6865
CG31145 [DRSC14671]: 2.22e5
